# Some of the results follow.
# B1: Thrombomodulin Lectin (Mus musculus) (protein)
# chain: LSALAKLQPTGSQCVEHECFALFQGPATFLDASQACQRLQGHLMTVRSSVAADVISLLLSQSSMDLGPWIGLQLPQGCDDPVHLGPLRGFQWVTGDNHTSYSRWARPNDQTAPLCGPLCVTVSTATEAAPGEPAWEEKPCETETQGFLCEFYFTASCRVDPIPVREDTKEEEGAGEPPVSPTPGSPTGPPSARPVLDEPRVPITQNPCPPLKECPPCAAPDLEGGPSVFIFPPKIKDVLMISLSPMVTCVVVDVSEDDPDVQISWFVNNVEVHTAQTQTHREDYNSTLRVVSALPIQHQDWMSGKAFACAVNNRALPSPIEKTISKPRGPVRAPQVYVLPPPAEEMTKKEFSLTCMITGFLPAEIAVDWTSNGRTEQNYKNTATVLDSDGSYFMYSKLRVQKSTWERGSLFACSVVHEGLHNHLTTKTISRSLGK
# Experiments:
# Assay in all cases: glycan array binding signal (z-score within array); higher = stronger binding
# Conditions in all cases: glycan notation: IUPAC condensed, linker removed
# [1] = molecular target: GlcNAc(a1-4)Gal(b1-3)GlcNAc
# Summary of the method: (§1)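 From the Consortium for Functional Glycomics database, 3228 arrays were curated, keeping only those whose protein sequence was available. Binding is given as a within-array Z-score averaged across arrays sharing a protein sequence and across linkers. Negative Z-scores can be read as non-binding.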
# [2] = molecular target: GlcNAc(a1-4)Gal(b1-4)GalNAc
# Summary of the method: as §1
# [3] = molecular target: GlcNAc(a1-4)Gal(b1-4)GlcNAc
# Summary of the method: as §1
# [4] = molecular target: GlcNAc(a1-4)Gal(b1-4)GlcNAc(b1-3)Gal(b1-4)Glc
# Summary of the method: as §1
# [5] = molecular target: GlcNAc(a1-4)Gal(b1-4)GlcNAc(b1-3)Gal(b1-4)GlcNAc
# Summary of the method: as §1
# [6] = molecular target: GlcNAc(a1-4)Gal(b1-4)GlcNAc(b1-3)Gal(b1-4)GlcNAc(b1-3)Gal(b1-4)GlcNAc
# Summary of the method: as §1
# [7] = molecular target: GlcNAc(a1-4)Gal(b1-4)GlcNAc(b1-3)Gal(b1-4)[Fuc(a1-3)]GlcNAc(b1-3)Gal(b1-4)[Fuc(a1-3)]GlcNAc
# Summary of the method: as §1
# [8] = molecular target: GlcNAc(a1-6)Gal(b1-4)GlcNAc
# Summary of the method: as §1
# [9] = molecular target: GlcNAc(b1-2)Gal(b1-3)GalNAc
# Summary of the method: as §1
# [10] = molecular target: GlcNAc(b1-2)Man(a1-3)[GlcNAc(b1-2)Man(a1-6)]Man(b1-4)GlcNAc(b1-4)GlcNAc
# Summary of the method: as §1
# [11] = molecular target: GlcNAc(b1-2)Man(a1-3)[GlcNAc(b1-2)Man(a1-6)]Man(b1-4)GlcNAc(b1-4)[Fuc(a1-6)]GlcNAc
# Summary of the method: as §1
# [12] = molecular target: GlcNAc(b1-2)Man(a1-3)[GlcNAc(b1-4)][GlcNAc(b1-2)Man(a1-6)]Man(b1-4)GlcNAc(b1-4)GlcNAc
# Summary of the method: as §1
# [13] = molecular target: GlcNAc(b1-2)Man(a1-3)[GlcNAc(b1-4)][GlcNAc(b1-2)Man(a1-6)]Man(b1-4)GlcNAc(b1-4)[Fuc(a1-6)]GlcNAc
# Summary of the method: as §1
# [14] = molecular target: GlcNAc(b1-2)[GlcNAc(b1-4)]Man(a1-3)[GlcNAc(b1-2)Man(a1-6)]Man(b1-4)GlcNAc(b1-4)GlcNAc
# Summary of the method: as §1
# [15] = molecular target: GlcNAc(b1-2)[GlcNAc(b1-4)]Man(a1-3)[GlcNAc(b1-4)][GlcNAc(b1-2)Man(a1-6)]Man(b1-4)GlcNAc(b1-4)GlcNAc
# Summary of the method: as §1
# [16] = molecular target: GlcNAc(b1-2)[GlcNAc(b1-4)]Man(a1-3)[GlcNAc(b1-4)][GlcNAc(b1-2)[GlcNAc(b1-6)]Man(a1-6)]Man(b1-4)GlcNAc(b1-4)GlcNAc
# Summary of the method: as §1
# [17] = molecular target: GlcNAc(b1-2)[GlcNAc(b1-4)]Man(a1-3)[GlcNAc(b1-4)][GlcNAc(b1-2)[GlcNAc(b1-6)]Man(a1-6)]Man(b1-4)GlcNAc(b1-4)[Fuc(a1-6)]GlcNAc
# Summary of the method: as §1
# [18] = molecular target: GlcNAc(b1-2)[GlcNAc(b1-6)]Man(a1-6)[GlcNAc(b1-2)Man(a1-3)]Man(b1-4)GlcNAc(b1-4)GlcNAc
# Summary of the method: as §1
# [19] = molecular target: GlcNAc(b1-2)[GlcNAc(b1-6)]Man(a1-6)[GlcNAc(b1-2)Man(a1-3)]Man(b1-4)GlcNAc(b1-4)[Fuc(a1-6)]GlcNAc
# Summary of the method: as §1
# [20] = molecular target: GlcNAc(b1-2)[GlcNAc(b1-6)]Man(a1-6)[GlcNAc(b1-4)][GlcNAc(b1-2)Man(a1-3)]Man(b1-4)GlcNAc(b1-4)GlcNAc
# Summary of the method: as §1
# [21] = molecular target: GlcNAc(b1-3)Fuc
# Summary of the method: as §1
# [22] = molecular target: GlcNAc(b1-3)Gal
# Summary of the method: as §1
# [23] = molecular target: GlcNAc(b1-3)Gal(b1-3)GalNAc
# Summary of the method: as §1
# [24] = molecular target: GlcNAc(b1-3)Gal(b1-4)Glc
# Summary of the method: as §1
# [25] = molecular target: GlcNAc(b1-3)Gal(b1-4)GlcNAc
# Summary of the method: as §1
# [26] = molecular target: GlcNAc(b1-3)Gal(b1-4)GlcNAc(b1-2)Man(a1-3)[GlcNAc(b1-3)Gal(b1-4)GlcNAc(b1-2)Man(a1-6)]Man(b1-4)GlcNAc(b1-4)GlcNAc
# Summary of the method: as §1
# [27] = molecular target: GlcNAc(b1-3)Gal(b1-4)GlcNAc(b1-2)Man(a1-3)[GlcNAc(b1-3)Gal(b1-4)GlcNAc(b1-2)Man(a1-6)]Man(b1-4)GlcNAc(b1-4)[Fuc(a1-6)]GlcNAc
# Summary of the method: as §1
# [28] = molecular target: GlcNAc(b1-3)Gal(b1-4)GlcNAc(b1-2)[GlcNAc(b1-3)Gal(b1-4)GlcNAc(b1-6)]Man(a1-6)[GlcNAc(b1-3)Gal(b1-4)GlcNAc(b1-2)Man(a1-3)]Man(b1-4)GlcNAc(b1-4)GlcNAc
# Summary of the method: as §1
# [29] = molecular target: GlcNAc(b1-3)Gal(b1-4)GlcNAc(b1-3)Gal(b1-4)GlcNAc
# Summary of the method: as §1
# [30] = molecular target: GlcNAc(b1-3)Gal(b1-4)GlcNAc(b1-3)Gal(b1-4)GlcNAc(b1-2)Man(a1-3)[GlcNAc(b1-3)Gal(b1-4)GlcNAc(b1-3)Gal(b1-4)GlcNAc(b1-2)Man(a1-6)]Man(b1-4)GlcNAc(b1-4)GlcNAc
# Summary of the method: as §1
# [31] = molecular target: GlcNAc(b1-3)Gal(b1-4)GlcNAc(b1-3)Gal(b1-4)GlcNAc(b1-2)Man(a1-3)[GlcNAc(b1-3)Gal(b1-4)GlcNAc(b1-3)Gal(b1-4)GlcNAc(b1-2)Man(a1-6)]Man(b1-4)GlcNAc(b1-4)[Fuc(a1-6)]GlcNAc
# Summary of the method: as §1
# [32] = molecular target: GlcNAc(b1-3)Gal(b1-4)GlcNAc(b1-3)Gal(b1-4)GlcNAc(b1-2)[GlcNAc(b1-3)Gal(b1-4)GlcNAc(b1-3)Gal(b1-4)GlcNAc(b1-6)]Man(a1-6)[GlcNAc(b1-3)Gal(b1-4)GlcNAc(b1-3)Gal(b1-4)GlcNAc(b1-2)Man(a1-3)]Man(b1-4)GlcNAc(b1-4)[Fuc(a1-6)]GlcNAc
# Summary of the method: as §1
# [33] = molecular target: GlcNAc(b1-3)Gal(b1-4)GlcNAc(b1-3)Gal(b1-4)GlcNAc(b1-3)Gal(b1-4)GlcNAc(b1-2)Man(a1-3)[GlcNAc(b1-3)Gal(b1-4)GlcNAc(b1-3)Gal(b1-4)GlcNAc(b1-3)Gal(b1-4)GlcNAc(b1-2)Man(a1-6)]Man(b1-4)GlcNAc(b1-4)GlcNAc
# Summary of the method: as §1
# [34] = molecular target: GlcNAc(b1-3)Gal(b1-4)GlcNAc(b1-3)Gal(b1-4)GlcNAc(b1-3)Gal(b1-4)GlcNAc(b1-2)Man(a1-3)[GlcNAc(b1-3)Gal(b1-4)GlcNAc(b1-3)Gal(b1-4)GlcNAc(b1-3)Gal(b1-4)GlcNAc(b1-2)Man(a1-6)]Man(b1-4)GlcNAc(b1-4)[Fuc(a1-6)]GlcNAc
# Summary of the method: as §1
# [35] = molecular target: GlcNAc(b1-3)Gal(b1-4)GlcNAc(b1-3)Gal(b1-4)GlcNAc(b1-3)Gal(b1-4)GlcNAc(b1-2)[GlcNAc(b1-3)Gal(b1-4)GlcNAc(b1-3)Gal(b1-4)GlcNAc(b1-3)Gal(b1-4)GlcNAc(b1-6)]Man(a1-6)[GlcNAc(b1-3)Gal(b1-4)GlcNAc(b1-3)Gal(b1-4)GlcNAc(b1-3)Gal(b1-4)GlcNAc(b1-2)Man(a1-3)]Man(b1-4)GlcNAc(b1-4)[Fuc(a1-6)]GlcNAc
# Summary of the method: as §1
# [36] = molecular target: GlcNAc(b1-3)Gal(b1-4)GlcNAc(b1-3)Gal(b1-4)GlcNAc(b1-3)Gal(b1-4)GlcNAc(b1-3)Gal(b1-4)GlcNAc(b1-2)Man(a1-3)[GlcNAc(b1-3)Gal(b1-4)GlcNAc(b1-3)Gal(b1-4)GlcNAc(b1-3)Gal(b1-4)GlcNAc(b1-3)Gal(b1-4)GlcNAc(b1-2)Man(a1-6)]Man(b1-4)GlcNAc(b1-4)GlcNAc
# Summary of the method: as §1
# [37] = molecular target: GlcNAc(b1-3)Gal(b1-4)GlcNAc(b1-3)Gal(b1-4)GlcNAc(b1-3)Gal(b1-4)GlcNAc(b1-3)Gal(b1-4)GlcNAc(b1-2)Man(a1-3)[GlcNAc(b1-3)Gal(b1-4)GlcNAc(b1-3)Gal(b1-4)GlcNAc(b1-3)Gal(b1-4)GlcNAc(b1-3)Gal(b1-4)GlcNAc(b1-2)Man(a1-6)]Man(b1-4)GlcNAc(b1-4)[Fuc(a1-6)]GlcNAc
# Summary of the method: as §1
# [38] = molecular target: GlcNAc(b1-3)Gal(b1-4)GlcNAc(b1-3)Gal(b1-4)GlcNAc(b1-3)Gal(b1-4)GlcNAc(b1-3)Gal(b1-4)GlcNAc(b1-2)[GlcNAc(b1-3)Gal(b1-4)GlcNAc(b1-3)Gal(b1-4)GlcNAc(b1-3)Gal(b1-4)GlcNAc(b1-3)Gal(b1-4)GlcNAc(b1-6)]Man(a1-6)[GlcNAc(b1-3)Gal(b1-4)GlcNAc(b1-3)Gal(b1-4)GlcNAc(b1-3)Gal(b1-4)GlcNAc(b1-3)Gal(b1-4)GlcNAc(b1-2)Man(a1-3)]Man(b1-4)GlcNAc(b1-4)[Fuc(a1-6)]GlcNAc
# Summary of the method: as §1
binder,measurement,setting,value
B1,glycan array binding signal (z-score),[1],0.075
same,glycan array binding signal (z-score),[2],1.42
same,glycan array binding signal (z-score),[3],0.354
same,glycan array binding signal (z-score),[4],-0.582
same,glycan array binding signal (z-score),[5],1.67
same,glycan array binding signal (z-score),[6],-0.346
same,glycan array binding signal (z-score),[7],0.73
same,glycan array binding signal (z-score),[8],1.09
same,glycan array binding signal (z-score),[9],-0.073
same,glycan array binding signal (z-score),[10],-0.521
same,glycan array binding signal (z-score),[11],-0.281
same,glycan array binding signal (z-score),[12],-0.823
same,glycan array binding signal (z-score),[13],0.81
same,glycan array binding signal (z-score),[14],0.317
same,glycan array binding signal (z-score),[15],-0.665
same,glycan array binding signal (z-score),[16],-0.06
same,glycan array binding signal (z-score),[17],0.208
same,glycan array binding signal (z-score),[18],-0.201
same,glycan array binding signal (z-score),[19],-0.017
same,glycan array binding signal (z-score),[20],-1.3
same,glycan array binding signal (z-score),[21],0.309
same,glycan array binding signal (z-score),[22],1.25
same,glycan array binding signal (z-score),[23],0.666
same,glycan array binding signal (z-score),[24],-0.433
same,glycan array binding signal (z-score),[25],-0.204
same,glycan array binding signal (z-score),[26],-0.235
same,glycan array binding signal (z-score),[27],-0.564
same,glycan array binding signal (z-score),[28],-1.48
same,glycan array binding signal (z-score),[29],-0.268
same,glycan array binding signal (z-score),[30],1.08
same,glycan array binding signal (z-score),[31],-1.57
same,glycan array binding signal (z-score),[32],2.07
same,glycan array binding signal (z-score),[33],0.214
same,glycan array binding signal (z-score),[34],0.764
same,glycan array binding signal (z-score),[35],0.558
same,glycan array binding signal (z-score),[36],0.151
same,glycan array binding signal (z-score),[37],1.05
same,glycan array binding signal (z-score),[38],0.746

# Two records picked at random from the list so far:
binder,measurement,setting,value
B1,glycan array binding signal (z-score),[37],1.05
same,glycan array binding signal (z-score),[4],-0.582
